For experiment [1], the target named is G551D-CFTR (Gly to Asp at position 551) (human) (UniProt P13569). The experiment can be described thus: co-IP; anti-CFTR antibody M3A7 on Protein G magnetic beads, 500 µg whole cell lysate of Wt-CFTR or G551D-CFTR HeLa cells in RIPA buffer, 4°C overnight; calumenin detected by western blot and quantified. In general terms: In western blotting, separated proteins are transferred to a membrane and probed.

By UniProt entry, the sequences of proteins in these tests, tags left out. Where a name states a change or a piece, a line headed by the entry shows the natural chain unless it says otherwise.
UniProt P13569: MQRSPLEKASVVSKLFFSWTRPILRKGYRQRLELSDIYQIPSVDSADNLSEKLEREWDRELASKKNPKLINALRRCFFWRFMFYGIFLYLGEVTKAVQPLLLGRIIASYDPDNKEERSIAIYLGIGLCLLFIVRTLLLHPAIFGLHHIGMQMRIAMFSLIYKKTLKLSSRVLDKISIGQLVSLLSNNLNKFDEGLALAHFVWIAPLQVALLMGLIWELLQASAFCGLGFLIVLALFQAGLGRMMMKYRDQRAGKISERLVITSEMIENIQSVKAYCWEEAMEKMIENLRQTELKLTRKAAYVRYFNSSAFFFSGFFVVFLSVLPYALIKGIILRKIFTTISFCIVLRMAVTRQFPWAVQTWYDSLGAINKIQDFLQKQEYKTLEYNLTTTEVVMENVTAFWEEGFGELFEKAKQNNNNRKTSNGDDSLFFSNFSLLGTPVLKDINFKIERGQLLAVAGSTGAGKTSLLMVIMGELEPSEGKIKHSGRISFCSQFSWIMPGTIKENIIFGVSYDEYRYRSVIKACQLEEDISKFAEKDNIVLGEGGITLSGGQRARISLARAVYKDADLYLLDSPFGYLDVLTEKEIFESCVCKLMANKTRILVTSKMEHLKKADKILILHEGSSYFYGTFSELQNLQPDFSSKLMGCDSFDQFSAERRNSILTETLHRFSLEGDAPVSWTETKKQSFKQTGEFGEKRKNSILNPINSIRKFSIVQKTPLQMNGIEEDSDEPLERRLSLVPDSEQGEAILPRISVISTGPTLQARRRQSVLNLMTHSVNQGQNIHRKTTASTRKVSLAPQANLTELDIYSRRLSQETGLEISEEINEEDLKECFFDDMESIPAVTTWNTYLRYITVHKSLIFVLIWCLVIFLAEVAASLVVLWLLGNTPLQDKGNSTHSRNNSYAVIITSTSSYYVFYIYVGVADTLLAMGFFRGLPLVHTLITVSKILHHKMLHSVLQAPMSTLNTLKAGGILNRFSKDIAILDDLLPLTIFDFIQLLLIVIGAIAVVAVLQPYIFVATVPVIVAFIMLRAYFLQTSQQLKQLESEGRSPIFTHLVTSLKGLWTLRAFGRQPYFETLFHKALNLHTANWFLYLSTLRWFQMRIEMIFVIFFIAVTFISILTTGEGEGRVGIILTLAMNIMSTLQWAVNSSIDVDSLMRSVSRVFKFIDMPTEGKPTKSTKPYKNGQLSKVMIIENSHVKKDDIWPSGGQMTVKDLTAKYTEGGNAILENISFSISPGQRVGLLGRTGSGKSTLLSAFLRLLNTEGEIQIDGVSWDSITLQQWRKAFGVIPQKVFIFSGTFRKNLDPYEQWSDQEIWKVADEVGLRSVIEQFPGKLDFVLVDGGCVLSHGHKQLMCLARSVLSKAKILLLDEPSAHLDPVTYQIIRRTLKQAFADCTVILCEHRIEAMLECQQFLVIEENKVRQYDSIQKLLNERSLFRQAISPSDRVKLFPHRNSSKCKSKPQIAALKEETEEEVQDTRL

For experiment [2], the target named is human wild type CFTR (cystic fibrosis transmembrane conductance regulator) (human) (UniProt P13569). The description is as above.

No constants are given. Whether binding was seen depends on the method and setting. In cells and extracts the contact can be indirect. Some results given as binding are weak or reduced against the parent protein; the word gives no strength.

B1: Calumenin (protein, UniProt O43852 20-315)
chain: KPTEKKDRVHHEPQLSDKVHNDAQSFDYDHDAFLGAEEAKTFDQLTPEESKERLGKIVSKIDGDKDGFVTVDELKDWIKFAQKRWIYEDVERQWKGHDLNEDGLVSWEEYKNATYGYVLDDPDPDDGFNYKQMMVRDERRFKMADKDGDLIATKEEFTAFLHPEEYDYMKDIVVQETMEDIDKNADGFIDLEEYIGDMYSHDGNTDEPEWVKTEREQFVEFRDKNRDGKMDKEETKDWILPSDYDHAEAEARHLVYESDQNKDGKLTKEEIVDKYDLFVGSQATDFGEALVRHDEF
In the case of B1, the binding result in experiment [1] and in experiment [2] was “binds” in each case.

The values above are taken from PMC3387016.
